Laboratory results from article PMC7243037.
No constants are given. Whether binding was seen depends on the method and setting. Binding can be weak; no strength is given. For some assays here: Binding seen in cells or lysates may run through a third protein. Values belong to the molecule of their own block, whether it stands above or below them.

Sequences of proteins named here, by UniProt entry; tags and fusion partners are left off. A change or cut given only in a name is not applied to a line headed by its entry.
UniProt Q12772: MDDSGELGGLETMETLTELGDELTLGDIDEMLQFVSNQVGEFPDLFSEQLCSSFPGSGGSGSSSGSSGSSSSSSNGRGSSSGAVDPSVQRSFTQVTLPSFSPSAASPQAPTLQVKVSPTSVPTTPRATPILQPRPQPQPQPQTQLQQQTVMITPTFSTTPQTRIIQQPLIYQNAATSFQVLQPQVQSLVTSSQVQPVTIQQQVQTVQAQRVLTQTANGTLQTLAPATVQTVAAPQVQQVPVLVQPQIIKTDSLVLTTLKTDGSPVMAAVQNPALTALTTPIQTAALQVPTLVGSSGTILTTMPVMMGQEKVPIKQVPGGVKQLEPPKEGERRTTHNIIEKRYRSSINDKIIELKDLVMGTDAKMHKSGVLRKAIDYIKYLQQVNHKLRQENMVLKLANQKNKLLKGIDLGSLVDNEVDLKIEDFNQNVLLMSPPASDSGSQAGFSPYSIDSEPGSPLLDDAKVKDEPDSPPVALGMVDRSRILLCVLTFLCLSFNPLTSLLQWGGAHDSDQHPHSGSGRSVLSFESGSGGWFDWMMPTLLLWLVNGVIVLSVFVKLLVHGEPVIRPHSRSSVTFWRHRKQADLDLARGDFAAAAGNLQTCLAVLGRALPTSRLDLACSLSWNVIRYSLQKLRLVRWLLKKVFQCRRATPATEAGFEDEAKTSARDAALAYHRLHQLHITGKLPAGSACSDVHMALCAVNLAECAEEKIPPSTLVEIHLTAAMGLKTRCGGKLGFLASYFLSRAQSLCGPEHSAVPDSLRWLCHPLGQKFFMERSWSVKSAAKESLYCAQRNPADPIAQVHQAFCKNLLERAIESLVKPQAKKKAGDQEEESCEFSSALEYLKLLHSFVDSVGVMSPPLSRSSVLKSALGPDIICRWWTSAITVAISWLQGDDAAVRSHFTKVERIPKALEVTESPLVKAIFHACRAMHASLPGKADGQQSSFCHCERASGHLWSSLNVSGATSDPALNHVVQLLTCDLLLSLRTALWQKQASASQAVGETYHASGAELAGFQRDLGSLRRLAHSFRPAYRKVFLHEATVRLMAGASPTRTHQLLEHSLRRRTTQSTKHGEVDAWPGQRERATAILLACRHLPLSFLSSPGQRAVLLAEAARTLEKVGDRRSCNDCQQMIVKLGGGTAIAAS
UniProt Q3U1N2: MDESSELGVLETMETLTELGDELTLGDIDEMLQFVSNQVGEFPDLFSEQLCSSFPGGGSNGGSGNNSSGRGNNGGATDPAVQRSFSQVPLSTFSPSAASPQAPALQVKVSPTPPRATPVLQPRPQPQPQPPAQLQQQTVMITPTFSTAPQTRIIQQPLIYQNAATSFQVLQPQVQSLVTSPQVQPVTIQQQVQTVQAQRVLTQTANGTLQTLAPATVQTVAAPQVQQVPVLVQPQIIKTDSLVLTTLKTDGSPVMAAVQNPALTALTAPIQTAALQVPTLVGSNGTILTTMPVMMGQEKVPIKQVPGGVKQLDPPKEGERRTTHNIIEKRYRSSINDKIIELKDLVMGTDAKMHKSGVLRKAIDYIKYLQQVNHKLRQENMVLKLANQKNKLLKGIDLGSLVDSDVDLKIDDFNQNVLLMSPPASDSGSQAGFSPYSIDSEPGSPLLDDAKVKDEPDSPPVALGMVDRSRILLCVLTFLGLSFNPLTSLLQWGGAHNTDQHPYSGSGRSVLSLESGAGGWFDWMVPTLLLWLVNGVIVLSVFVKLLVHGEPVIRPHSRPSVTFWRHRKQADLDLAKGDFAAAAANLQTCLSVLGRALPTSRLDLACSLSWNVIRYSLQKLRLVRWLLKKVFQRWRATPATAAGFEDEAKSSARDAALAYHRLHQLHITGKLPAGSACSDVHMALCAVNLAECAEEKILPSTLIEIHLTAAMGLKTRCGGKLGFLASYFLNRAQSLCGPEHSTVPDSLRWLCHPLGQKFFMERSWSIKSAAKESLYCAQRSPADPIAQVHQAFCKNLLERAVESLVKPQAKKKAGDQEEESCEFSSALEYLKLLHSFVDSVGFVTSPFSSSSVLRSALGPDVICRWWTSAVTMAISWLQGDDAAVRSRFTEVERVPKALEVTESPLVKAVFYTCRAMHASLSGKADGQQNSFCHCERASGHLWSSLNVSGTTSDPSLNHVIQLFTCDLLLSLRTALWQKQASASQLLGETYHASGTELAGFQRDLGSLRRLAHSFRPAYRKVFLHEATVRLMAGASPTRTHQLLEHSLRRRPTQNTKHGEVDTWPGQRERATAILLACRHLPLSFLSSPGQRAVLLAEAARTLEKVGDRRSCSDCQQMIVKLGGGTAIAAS
UniProt P51532: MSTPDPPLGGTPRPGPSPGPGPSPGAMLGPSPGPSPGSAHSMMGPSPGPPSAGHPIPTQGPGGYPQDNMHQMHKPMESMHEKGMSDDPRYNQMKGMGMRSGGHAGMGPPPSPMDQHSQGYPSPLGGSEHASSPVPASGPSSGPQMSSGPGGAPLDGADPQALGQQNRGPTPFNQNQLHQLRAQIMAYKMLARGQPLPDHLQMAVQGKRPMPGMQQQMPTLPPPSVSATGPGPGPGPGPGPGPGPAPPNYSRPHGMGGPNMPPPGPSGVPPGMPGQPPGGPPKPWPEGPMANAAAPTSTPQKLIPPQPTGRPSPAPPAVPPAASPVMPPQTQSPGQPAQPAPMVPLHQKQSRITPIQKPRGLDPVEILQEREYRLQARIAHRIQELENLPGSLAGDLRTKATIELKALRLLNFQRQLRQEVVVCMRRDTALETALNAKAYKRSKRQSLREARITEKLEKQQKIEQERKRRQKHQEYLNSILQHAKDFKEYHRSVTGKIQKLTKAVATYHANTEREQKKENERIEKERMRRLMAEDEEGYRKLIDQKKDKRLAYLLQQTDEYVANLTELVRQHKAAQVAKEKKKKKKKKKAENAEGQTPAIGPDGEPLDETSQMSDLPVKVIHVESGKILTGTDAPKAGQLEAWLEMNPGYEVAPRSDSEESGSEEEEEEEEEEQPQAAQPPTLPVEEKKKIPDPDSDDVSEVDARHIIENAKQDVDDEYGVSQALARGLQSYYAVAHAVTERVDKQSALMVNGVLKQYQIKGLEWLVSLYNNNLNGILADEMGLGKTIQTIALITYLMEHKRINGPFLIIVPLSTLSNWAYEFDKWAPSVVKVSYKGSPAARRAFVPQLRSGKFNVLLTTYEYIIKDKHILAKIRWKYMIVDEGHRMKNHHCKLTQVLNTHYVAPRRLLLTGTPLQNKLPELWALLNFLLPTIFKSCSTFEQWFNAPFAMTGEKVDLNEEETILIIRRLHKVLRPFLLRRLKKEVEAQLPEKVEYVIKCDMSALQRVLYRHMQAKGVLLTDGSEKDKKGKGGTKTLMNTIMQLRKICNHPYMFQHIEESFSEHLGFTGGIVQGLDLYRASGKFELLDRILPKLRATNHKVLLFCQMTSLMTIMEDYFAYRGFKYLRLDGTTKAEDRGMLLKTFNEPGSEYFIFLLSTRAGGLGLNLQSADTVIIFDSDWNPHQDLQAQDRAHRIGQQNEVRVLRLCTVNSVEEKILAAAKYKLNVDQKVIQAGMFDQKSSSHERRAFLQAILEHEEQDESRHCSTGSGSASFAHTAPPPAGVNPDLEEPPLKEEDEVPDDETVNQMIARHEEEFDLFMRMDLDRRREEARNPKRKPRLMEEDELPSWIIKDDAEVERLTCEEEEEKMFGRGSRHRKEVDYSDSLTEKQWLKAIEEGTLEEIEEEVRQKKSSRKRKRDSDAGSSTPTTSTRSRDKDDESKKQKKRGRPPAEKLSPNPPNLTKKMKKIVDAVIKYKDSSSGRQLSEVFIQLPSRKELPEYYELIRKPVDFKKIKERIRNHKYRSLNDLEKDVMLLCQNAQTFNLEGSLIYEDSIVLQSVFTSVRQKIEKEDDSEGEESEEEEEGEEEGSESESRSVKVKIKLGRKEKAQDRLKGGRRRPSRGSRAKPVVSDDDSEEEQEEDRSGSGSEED
UniProt Q3TKT4: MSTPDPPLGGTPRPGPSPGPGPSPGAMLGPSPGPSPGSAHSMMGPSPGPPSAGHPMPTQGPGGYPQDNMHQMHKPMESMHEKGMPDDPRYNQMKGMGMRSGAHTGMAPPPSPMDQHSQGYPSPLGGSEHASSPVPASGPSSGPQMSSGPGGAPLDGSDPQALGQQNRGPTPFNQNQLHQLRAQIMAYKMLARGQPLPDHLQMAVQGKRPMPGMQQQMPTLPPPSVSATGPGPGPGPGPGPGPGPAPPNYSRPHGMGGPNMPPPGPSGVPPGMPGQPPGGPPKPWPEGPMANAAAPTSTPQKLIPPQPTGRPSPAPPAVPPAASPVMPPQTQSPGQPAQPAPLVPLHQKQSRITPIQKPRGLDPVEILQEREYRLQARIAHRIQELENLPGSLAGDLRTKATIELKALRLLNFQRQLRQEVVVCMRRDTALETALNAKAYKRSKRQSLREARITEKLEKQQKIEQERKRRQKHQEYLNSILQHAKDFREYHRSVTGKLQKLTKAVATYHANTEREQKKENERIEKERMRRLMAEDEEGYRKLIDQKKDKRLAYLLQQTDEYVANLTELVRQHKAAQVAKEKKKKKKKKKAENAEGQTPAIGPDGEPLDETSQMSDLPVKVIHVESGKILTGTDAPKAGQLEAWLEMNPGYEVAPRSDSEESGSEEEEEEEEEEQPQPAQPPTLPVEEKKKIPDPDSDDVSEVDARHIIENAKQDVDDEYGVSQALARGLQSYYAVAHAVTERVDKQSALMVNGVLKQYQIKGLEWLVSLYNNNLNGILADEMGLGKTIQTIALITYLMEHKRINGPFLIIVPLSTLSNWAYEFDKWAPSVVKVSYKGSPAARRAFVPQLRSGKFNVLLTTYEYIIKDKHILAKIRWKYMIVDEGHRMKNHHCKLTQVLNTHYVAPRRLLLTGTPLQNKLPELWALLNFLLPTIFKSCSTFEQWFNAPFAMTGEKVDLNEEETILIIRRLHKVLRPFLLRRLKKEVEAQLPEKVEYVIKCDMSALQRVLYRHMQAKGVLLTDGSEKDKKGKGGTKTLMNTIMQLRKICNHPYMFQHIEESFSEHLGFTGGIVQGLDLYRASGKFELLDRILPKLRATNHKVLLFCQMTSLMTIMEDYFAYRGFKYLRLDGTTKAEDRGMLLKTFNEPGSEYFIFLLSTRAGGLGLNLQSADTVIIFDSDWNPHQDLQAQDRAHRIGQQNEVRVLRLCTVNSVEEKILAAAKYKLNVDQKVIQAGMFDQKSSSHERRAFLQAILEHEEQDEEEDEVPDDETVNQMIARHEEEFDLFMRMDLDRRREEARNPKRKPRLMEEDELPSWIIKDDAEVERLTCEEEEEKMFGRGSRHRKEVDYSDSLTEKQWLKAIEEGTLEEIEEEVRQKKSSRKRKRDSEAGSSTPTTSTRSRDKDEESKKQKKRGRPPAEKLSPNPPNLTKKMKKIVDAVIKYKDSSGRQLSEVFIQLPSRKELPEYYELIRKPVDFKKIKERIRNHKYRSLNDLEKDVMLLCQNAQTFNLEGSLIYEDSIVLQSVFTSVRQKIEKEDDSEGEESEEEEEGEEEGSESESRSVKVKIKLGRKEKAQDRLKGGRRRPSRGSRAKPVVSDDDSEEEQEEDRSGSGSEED

How the values were obtained:
[1] = molecular target: Sterol response element binding protein 2 (SREBP2), human (human (endogenous in HepG2)) (UniProt Q12772); assay: co-IP; nuclear lysates of HepG2 cells cultured in LDM1 or LDM2 for 24 h; anti-Brg1, anti-SREBP2 or pre-immune IgG, overnight, Protein A/G-plus agarose; Western blot
[2] = molecular target: Sterol response element binding protein 2 (SREBP2), human (human (endogenous in HepG2)) (UniProt Q12772); assay: Re-ChIP; sequential chromatin immunoprecipitation with two antibodies from formaldehyde cross-linked, sonicated chromatin of HepG2 cells cultured in LDM1 or LDM2; qPCR of cholesterogenic gene promoters
[3] = molecular target: Sterol response element binding protein 2 (SREBP2), mouse (mouse (endogenous in liver)) (UniProt Q3U1N2); assay: co-IP; liver nuclear lysates of C57/BL6 mice fed an HFHC diet (16 weeks) or an MCD diet (8 weeks); anti-Brg1, anti-SREBP2 or pre-immune IgG, overnight, Protein A/G-plus agarose; Western blot
[4] = molecular target: Sterol response element binding protein 2 (SREBP2), mouse (mouse (endogenous in liver)) (UniProt Q3U1N2); assay: Re-ChIP; sequential chromatin immunoprecipitation with two antibodies from formaldehyde cross-linked, sonicated liver chromatin of mice fed an HFHC or MCD diet; qPCR of cholesterogenic gene promoters
[5] = molecular target: Sterol response element binding protein 2 (SREBP2), human (human (endogenous in HepG2)) (UniProt Q12772); assay: Re-ChIP; sequential chromatin immunoprecipitation with two antibodies from formaldehyde cross-linked, sonicated chromatin of HepG2 cells cultured in LDM1 or LDM2; qPCR of cholesterogenic gene promoters; remark: listed apart in the source

binding [1]: binds
binding [2]: binds
Molecule: Brahma related gene 1 (BRG1), human (from UniProt P51532 1-1647)

binding [3]: binds
binding [4]: binds
Molecule: Brahma related gene 1 (Brg1), mouse (from UniProt Q3TKT4 1-1613)

binding [5]: binds
B1: KDM3A, human (protein, UniProt Q9Y4C1 1-1321)
chain: MVLTLGESWPVLVGRRFLSLSAADGSDGSHDSWDVERVAEWPWLSGTIRAVSHTDVTKKDLKVCVEFDGESWRKRRWIEVYSLLRRAFLVEHNLVLAERKSPEISERIVQWPAITYKPLLDKAGLGSITSVRFLGDQQRVFLSKDLLKPIQDVNSLRLSLTDNQIVSKEFQALIVKHLDESHLLKGDKNLVGSEVKIYSLDPSTQWFSATVINGNPASKTLQVNCEEIPALKIVDPSLIHVEVVHDNLVTCGNSARIGAVKRKSSENNGTLVSKQAKSCSEASPSMCPVQSVPTTVFKEILLGCTAATPPSKDPRQQSTPQAANSPPNLGAKIPQGCHKQSLPEEISSCLNTKSEALRTKPDVCKAGLLSKSSQIGTGDLKILTEPKGSCTQPKTNTDQENRLESVPQALTGLPKECLPTKASSKAELEIANPPELQKHLEHAPSPSDVSNAPEVKAGVNSDSPNNCSGKKVEPSALACRSQNLKESSVKVDNESCCSRSNNKIQNAPSRKSVLTDPAKLKKLQQSGEAFVQDDSCVNIVAQLPKCRECRLDSLRKDKEQQKDSPVFCRFFHFRRLQFNKHGVLRVEGFLTPNKYDNEAIGLWLPLTKNVVGIDLDTAKYILANIGDHFCQMVISEKEAMSTIEPHRQVAWKRAVKGVREMCDVCDTTIFNLHWVCPRCGFGVCVDCYRMKRKNCQQGAAYKTFSWLKCVKSQIHEPENLMPTQIIPGKALYDVGDIVHSVRAKWGIKANCPCSNRQFKLFSKPASKEDLKQTSLAGEKPTLGAVLQQNPSVLEPAAVGGEAASKPAGSMKPACPASTSPLNWLADLTSGNVNKENKEKQPTMPILKNEIKCLPPLPPLSKSSTVLHTFNSTILTPVSNNNSGFLRNLLNSSTGKTENGLKNTPKILDDIFASLVQNKTTSDLSKRPQGLTIKPSILGFDTPHYWLCDNRLLCLQDPNNKSNWNVFRECWKQGQPVMVSGVHHKLNSELWKPESFRKEFGEQEVDLVNCRTNEIITGATVGDFWDGFEDVPNRLKNEKEPMVLKLKDWPPGEDFRDMMPSRFDDLMANIPLPEYTRRDGKLNLASRLPNYFVRPDLGPKMYNAYGLITPEDRKYGTTNLHLDVSDAANVMVYVGIPKGQCEQEEEVLKTIQDGDSDELTIKRFIEGKEKPGALWHIYAAKDTEKIREFLKKVSEEQGQENPADHDPIHDQSWYLDRSLRKRLHQEYGVQGWAIVQFLGDVVFIPAGAPHQVHNLYSCIKVAEDFVSPEHVKHCFWLTQEFRYLSQTHTNHEDKLQVKNVIYHAVKDAVAMLKASESSFGKP
